PubChem BioAssay AID1224826 | NIAID – 2016
In all, the deposit lists about 17,000 reagents; this is a random part of them. About 1,110 of all reagents (6.6%) count as active. 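Active means lowered or raised reporter signal; replicate intensities are raw and not normalised per plate.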 Further read-outs or replicates are left out here.

Screen: 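Genes that change LPS-induced Tnf promoter activity in mouse macrophages when knocked down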 (primary screen)
Cell system: RAW264.7 G9 macrophages from mouse bearing reporters for p65 (GFP) and the Tnf promoter (mCherry)
Reagent: siRNA pool against mouse genes, 100 nM
Duration: 16 h of LPS stimulation, after 2 days of siRNA transfection
Conditions: bacterial lipopolysaccharide (Salmonella minnesota R595), 10 ng/ml
Detection: 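Nuclear mCherry signal of the Tnf promoter reporter measured by imaging after background removal, scaled to each plate median and turned into robust z-scores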
Reading the numbers: Tnf reporter robust z-score: higher = stronger Tnf promoter reporter signal after LPS
Active means: 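a well counts as active at a score of -1.3 or below (Tlr4 knock-down control median) or above 3 (raised signal); controls and wells holding fewer than 50 cells are excluded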
Meaning of the calls: active = Tnf reporter clearly lowered or raised; inactive = no clear change in Tnf reporter

target gene	Tnf reporter robust z-score	fewer than 50 cells in well	Call
Rell2		fewer than 50 cells per well; well left out of calls	inactive
Noc3l	-0.41	enough cells in well	inactive
Samt3	2.31	enough cells in well	inactive
Slc22a8	1.36	enough cells in well	inactive
3300002I08Rik		fewer than 50 cells per well; well left out of calls	inactive
Foxc1	-0.52	enough cells in well	inactive
Rps8	-1.31	enough cells in well	active
Mmp21	0.85	enough cells in well	inactive
Ccr2	-0.64	enough cells in well	inactive
Ubfd1	-0.89	enough cells in well	inactive
Psmb1		fewer than 50 cells per well; well left out of calls	inactive
Cntrob		fewer than 50 cells per well; well left out of calls	inactive
4932415M13Rik		fewer than 50 cells per well; well left out of calls	inactive
Irf6	-0.35	enough cells in well	inactive
Or5b101	1.61	enough cells in well	inactive
Rasa4	-0.84	enough cells in well	inactive
Tmem203	1.31	enough cells in well	inactive
Rps2	-0.03	enough cells in well	inactive
Bin1	0.45	enough cells in well	inactive
Adamts10	0.66	enough cells in well	inactive
Mark3	-0.7	enough cells in well	inactive
App	0.32	enough cells in well	inactive
Msh6	-0.25	enough cells in well	inactive
Cog8	-0.46	enough cells in well	inactive
Dgkg	0.29	enough cells in well	inactive
Dkk4	0.98	enough cells in well	inactive
Hspb3	-0.5	enough cells in well	inactive
Zfp617	-1.8	enough cells in well	active
Kcnip4	0.91	enough cells in well	inactive
Amy1	-0.6	enough cells in well	inactive
Dnajc3	-0.04	enough cells in well	inactive
Uqcr11	-0.24	enough cells in well	inactive
Cpt1a	-0.45	enough cells in well	inactive
Taf1a	-0.36	enough cells in well	inactive
Slc25a21	1.25	enough cells in well	inactive
Ndc1	-0.27	enough cells in well	inactive
Meis2	-0.02	enough cells in well	inactive
Mrps33	-1.23	enough cells in well	inactive
Eno2	-0.49	enough cells in well	inactive
Fgf14	0.55	enough cells in well	inactive
Wnt1	-0.13	enough cells in well	inactive
Crybb1	1.09	enough cells in well	inactive
Or2g25	1.76	enough cells in well	inactive
Clp1	-0.11	enough cells in well	inactive
Pip5k1b	-0.55	enough cells in well	inactive
Sack1a	-1.09	enough cells in well	inactive
Mylip	-1.82	enough cells in well	active
Or8k22	0.01	enough cells in well	inactive
Nxn	-0.38	enough cells in well	inactive
Mrpl10	-1.37	enough cells in well	active
Zfp334	1.34	enough cells in well	inactive
Crip3	-0.75	enough cells in well	inactive
Zc3h15	0.23	enough cells in well	inactive
Tmem168	-0.02	enough cells in well	inactive
Csn1s2a	-1.63	enough cells in well	active
Zfp574	-0.3	enough cells in well	inactive
St6galnac1		fewer than 50 cells per well; well left out of calls	inactive
Zfp367	-1.4	enough cells in well	active

Copied from above for reference:
target gene	Tnf reporter robust z-score	fewer than 50 cells in well	Call
Eno2	-0.49	enough cells in well	inactive
Fgf14	0.55	enough cells in well	inactive
Wnt1	-0.13	enough cells in well	inactive
Crybb1	1.09	enough cells in well	inactive
Or2g25	1.76	enough cells in well	inactive
Clp1	-0.11	enough cells in well	inactive
Pip5k1b	-0.55	enough cells in well	inactive
Sack1a	-1.09	enough cells in well	inactive
Mylip	-1.82	enough cells in well	active
